Data: paper PMC7449919
Results are given in words; binding and its absence hold for the method and conditions named. In cells and extracts the contact can be indirect. Some results given as binding are weak or reduced against the parent protein; the word gives no strength.

Protein sequences, listed by entry. Tags and fused reporters are not part of them.
UniProt P32121: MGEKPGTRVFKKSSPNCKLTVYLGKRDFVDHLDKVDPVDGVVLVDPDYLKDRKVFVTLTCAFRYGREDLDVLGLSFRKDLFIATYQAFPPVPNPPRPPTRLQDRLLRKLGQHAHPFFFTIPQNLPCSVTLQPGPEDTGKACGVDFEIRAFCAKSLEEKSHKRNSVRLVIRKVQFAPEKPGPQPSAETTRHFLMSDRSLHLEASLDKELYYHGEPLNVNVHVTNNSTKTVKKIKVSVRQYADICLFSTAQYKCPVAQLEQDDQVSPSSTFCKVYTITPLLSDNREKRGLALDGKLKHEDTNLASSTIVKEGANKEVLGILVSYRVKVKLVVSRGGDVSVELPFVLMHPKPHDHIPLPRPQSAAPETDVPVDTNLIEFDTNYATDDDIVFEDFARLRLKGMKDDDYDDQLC
UniProt P27361: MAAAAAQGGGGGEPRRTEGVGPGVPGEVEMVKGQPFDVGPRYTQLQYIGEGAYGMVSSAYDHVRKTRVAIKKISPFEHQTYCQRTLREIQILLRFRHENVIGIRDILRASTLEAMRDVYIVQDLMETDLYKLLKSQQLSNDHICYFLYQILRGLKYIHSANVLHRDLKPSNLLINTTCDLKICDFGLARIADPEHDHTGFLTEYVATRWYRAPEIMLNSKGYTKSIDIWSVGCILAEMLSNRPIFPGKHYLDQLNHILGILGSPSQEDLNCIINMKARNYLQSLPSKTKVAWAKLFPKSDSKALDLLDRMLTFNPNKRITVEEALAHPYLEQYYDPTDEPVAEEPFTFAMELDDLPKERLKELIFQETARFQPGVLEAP
UniProt P28482: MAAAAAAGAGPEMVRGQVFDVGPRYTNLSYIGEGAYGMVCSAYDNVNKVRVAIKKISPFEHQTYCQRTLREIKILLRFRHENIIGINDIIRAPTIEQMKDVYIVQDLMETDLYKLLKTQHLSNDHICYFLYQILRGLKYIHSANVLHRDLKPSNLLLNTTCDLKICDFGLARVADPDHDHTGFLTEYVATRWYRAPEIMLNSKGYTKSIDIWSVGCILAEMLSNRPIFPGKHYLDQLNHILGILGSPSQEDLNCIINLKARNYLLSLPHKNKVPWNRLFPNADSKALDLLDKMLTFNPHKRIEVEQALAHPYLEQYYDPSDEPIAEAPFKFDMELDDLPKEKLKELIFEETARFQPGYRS

Target: β-arrestin 2 (not stated (EPCs from human umbilical cord blood or mouse bone marrow)) (UniProt P32121)
Assay: co-IP; Pierce Co-Immunoprecipitation kit; Arrb2 antibody (25 μg, ab206972) immobilised on resin; 500 μg EPC protein, overnight at 4°C; eluate examined by Western blotting for ERK1/2 and Akt

Substance	binding
extracellular signal-regulated kinase 1 (from UniProt P27361 1-379) (enzyme)	binds
extracellular signal-regulated kinase 2 (from UniProt P28482 1-360) (enzyme)	binds
